PubChem BioAssay AID1224828 – NIAID – 2016
Aim: 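Knock-downs that increase or decrease LPS-induced p65 nuclear translocation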 (primary screen). Cell system: mouse RAW264.7 G9 macrophage reporter cells (GFP-p65, Tnf promoter-mCherry). Reagents: siRNA pool against mouse genes, 100 nM. Duration: 2 days siRNA transfection, then 40 min LPS before fixation. Treatment: LPS (Salmonella minnesota R595) at 10 ng/ml. Read-out: 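Microscopy ratio of nuclear to perinuclear-ring GFP-p65 signal, scaled to the plate median; gene score is the average of two replicate robust z-scores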. Direction: p65 translocation robust z-score: higher = more nuclear NF-kappaB p65 after LPS than the plate median; nuclear/cytoplasmic p65 ratio: higher = more nuclear NF-kappaB p65. Rule for the call: 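Called active when z exceeds 3.3 or falls under -1.56 (median of Tlr4 controls), giving activity score of at least 50; no calls for control wells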. Calls: active = hit (p65 shift raised or lowered); inactive = no clear change.
In all, the deposit lists about 17,000 reagents; below is a random part of them. 762 of them (4.5%) count as active. 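Active calls include both raised and lowered p65 entry, mostly lowered; wells with fewer than 50 cells lack a z-score.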 Raw values are not corrected between plates. Unmarked entries are inactive.

| gene knocked down | p65 translocation robust z-score | nuclear/cytoplasmic p65 ratio, rep 1 | nuclear/cytoplasmic p65 ratio, rep 2 | low cell count flag |
| --- | --- | --- | --- | --- |
| Stx19 (syntaxin 19) | 2.97 | 1.85 | 1.85 | enough cells to score |
| Nlrp12 (NLR family, pyrin domain containing 12) | 0.27 | 1.52 | 1.34 | enough cells to score |
| Or51s1 (olfactory receptor family 51 subfamily S member 1) | – | 1.58 | 0 | fewer than 50 cells per well; well left out of scoring |
| Gata1 (GATA binding protein 1) | 0.68 | 1.58 | 1.4 | enough cells to score |
| Gabrg1 (gamma-aminobutyric acid type A receptor subunit gamma 1) | 1.73 | 1.67 | 1.58 | enough cells to score |
| Clec14a (C-type lectin domain family 14, member a) | 0.62 | 1.51 | 1.5 | enough cells to score |
| Prdm8 (PR domain containing 8) | 0.56 | 1.62 | 1.78 | enough cells to score |
| Stx5a (syntaxin 5A) | – | 1.52 | 1.31 | fewer than 50 cells per well; well left out of scoring |
| Unc93a (unc-93 homolog A) | – | 1.29 | 1.23 | fewer than 50 cells per well; well left out of scoring |
| Trub2 (TruB pseudouridine (psi) synthase family member 2) | 1.5 | 1.83 | 1.65 | enough cells to score |
| Kri1 (KRI1 homolog) | 0.83 | 1.79 | 1.88 | enough cells to score |
| Rpl36a (ribosomal protein L36A) | -0.96 | 1.26 | 1.14 | enough cells to score |
| Or2y13 (olfactory receptor family 2 subfamily Y member 13) | – | 1.66 | 1.3 | fewer than 50 cells per well; well left out of scoring |
| Or52z12 (olfactory receptor family 52 subfamily Z member 12) | – | 1.55 | 1.41 | fewer than 50 cells per well; well left out of scoring |
| Ces1g (carboxylesterase 1G) | -0.32 | 1.51 | 1.77 | enough cells to score |
| Tdh (L-threonine dehydrogenase) | – | 1.11 | 1.09 | fewer than 50 cells per well; well left out of scoring |
| Pias1 (protein inhibitor of activated STAT 1) | -0.44 | 1.45 | 1.34 | enough cells to score |
| Mccc2 (methylcrotonoyl-Coenzyme A carboxylase 2 (beta)) | -0.81 | 1.33 | 1.31 | enough cells to score |
| Cenph (centromere protein H) | 0.18 | 1.45 | 1.44 | enough cells to score |
| Obsl1 (obscurin-like 1) | 1.51 | 1.84 | 1.8 | enough cells to score |
| Zfp641 (zinc finger protein 641) | -0.76 | 1.32 | 1.44 | enough cells to score |

Limited to “nuclear/cytoplasmic p65 ratio, rep 2”, for 3 of the entries above:
Tdh (L-threonine dehydrogenase): 1.09
Pias1 (protein inhibitor of activated STAT 1): 1.34
Mccc2 (methylcrotonoyl-Coenzyme A carboxylase 2 (beta)): 1.31

Next entries follow:
| gene knocked down | p65 translocation robust z-score | nuclear/cytoplasmic p65 ratio, rep 1 | nuclear/cytoplasmic p65 ratio, rep 2 | low cell count flag |
| --- | --- | --- | --- | --- |
| Il36g (interleukin 36G) | -0.28 | 1.41 | 1.37 | enough cells to score |
| Ube2b (ubiquitin-conjugating enzyme E2B) | 0.92 | 1.65 | 1.62 | enough cells to score |
| Tox (thymocyte selection-associated high mobility group box) | – | 1.5 | 1.18 | fewer than 50 cells per well; well left out of scoring |
| Ppp1r14d (protein phosphatase 1, regulatory inhibitor subunit 14D) | 1.17 | 1.67 | 1.56 | enough cells to score |
| Gipc2 (GIPC PDZ domain containing family, member 2) | 1.26 | 1.75 | 1.72 | enough cells to score |
| Xpnpep2 (X-prolyl aminopeptidase (aminopeptidase P) 2, membrane-bound) | -0.47 | 1.49 | 1.4 | enough cells to score |
| Or5m10 (olfactory receptor family 5 subfamily M member 10) | 0.22 | 1.76 | 1.55 | enough cells to score |
| Tspyl4 (TSPY-like 4) | – | 1.41 | 1.34 | fewer than 50 cells per well; well left out of scoring |
| Zg16 (zymogen granule protein 16) | 0.5 | 1.51 | 1.43 | enough cells to score |
| Capn7 (calpain 7) | 0.49 | 1.68 | 1.84 | enough cells to score |
| Plaur (plasminogen activator, urokinase receptor) | -0.11 | 1.45 | 1.42 | enough cells to score |
| Myo7a (myosin VIIA) | -0.88 | 1.4 | 1.17 | enough cells to score |
| A430057O09 | – | 1.25 | 1.23 | fewer than 50 cells per well; well left out of scoring |
| Or5aq6 (olfactory receptor family 5 subfamily AQ member 6) | 1.29 | 1.89 | 1.7 | enough cells to score |
| Pmaip1 (phorbol-12-myristate-13-acetate-induced protein 1) | 1.24 | 1.45 | 1.36 | enough cells to score |
| Ibtk (inhibitor of Bruton agammaglobulinemia tyrosine kinase) | -0.91 | 1.51 | 1.45 | enough cells to score |
| Mrps25 (mitochondrial ribosomal protein S25) | 2.06 | 2.16 | 1.86 | enough cells to score |
| Zfhx4 (zinc finger homeodomain 4) | – | 1.56 | 1.29 | fewer than 50 cells per well; well left out of scoring |
| Or2y10 (olfactory receptor family 2 subfamily Y member 10) | – | 1.73 | 1.46 | fewer than 50 cells per well; well left out of scoring |
